Measurements reported in publication PMC5429606.
No constants are given. Whether binding was seen depends on the method and setting. In cells and extracts the contact can be indirect. Some entries that bind do so weakly or less than the wild type.

T1: peroxisome proliferator-activated receptor gamma coactivator 1α (PGC-1α) (mouse (in TCMK-1 cells)) (UniProt O70343)
T1 sequence: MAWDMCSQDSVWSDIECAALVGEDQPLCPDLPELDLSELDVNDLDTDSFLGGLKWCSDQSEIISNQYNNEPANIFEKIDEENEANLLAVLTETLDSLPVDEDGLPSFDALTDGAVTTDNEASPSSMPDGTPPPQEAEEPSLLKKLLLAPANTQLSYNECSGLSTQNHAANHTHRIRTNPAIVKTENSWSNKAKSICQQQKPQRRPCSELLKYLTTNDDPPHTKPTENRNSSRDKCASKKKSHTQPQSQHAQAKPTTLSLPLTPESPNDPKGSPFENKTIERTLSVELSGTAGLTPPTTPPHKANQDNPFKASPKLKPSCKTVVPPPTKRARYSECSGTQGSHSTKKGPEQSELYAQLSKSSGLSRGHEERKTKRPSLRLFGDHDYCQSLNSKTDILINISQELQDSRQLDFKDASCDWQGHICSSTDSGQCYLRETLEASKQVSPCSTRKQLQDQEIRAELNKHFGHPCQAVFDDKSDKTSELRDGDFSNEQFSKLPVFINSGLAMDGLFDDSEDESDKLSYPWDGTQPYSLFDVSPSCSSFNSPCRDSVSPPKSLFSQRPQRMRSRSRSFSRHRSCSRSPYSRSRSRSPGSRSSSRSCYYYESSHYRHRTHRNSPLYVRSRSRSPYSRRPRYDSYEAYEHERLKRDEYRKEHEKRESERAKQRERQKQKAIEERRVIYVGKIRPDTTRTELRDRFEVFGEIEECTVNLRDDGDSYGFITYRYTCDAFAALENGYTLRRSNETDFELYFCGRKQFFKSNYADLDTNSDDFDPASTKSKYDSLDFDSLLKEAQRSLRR

B1: nuclear factor erythroid 2 (NF-E2)-related factor 2 (NRF2) (protein, UniProt Q60795 1-597)
chain: MMDLELPPPGLQSQQDMDLIDILWRQDIDLGVSREVFDFSQRQKDYELEKQKKLEKERQEQLQKEQEKAFFAQFQLDEETGEFLPIQPAQHIQTDTSGSASYSQVAHIPKQDALYFEDCMQLLAETFPFVDDHESLALDIPSHAESSVFTAPHQAQSLNSSLEAAMTDLSSIEQDMEQVWQELFSIPELQCLNTENKQLADTTAVPSPEATLTEMDSNYHFYSSISSLEKEVGNCGPHFLHGFEDSFSSILSTDDASQLTSLDSNPTLNTDFGDEFYSAFIAEPSDGGSMPSSAAISQSLSELLDGTIEGCDLSLCKAFNPKHAEGTMEFNDSDSGISLNTSPSRASPEHSVESSIYGDPPPGFSDSEMEELDSAPGSVKQNGPKAQPAHSPGDTVQPLSPAQGHSAPMRESQCENTTKKEVPVSPGHQKAPFTKDKHSSRLEAHLTRDELRAKALHIPFPVEKIINLPVDDFNEMMSKEQFNEAQLALIRDIRRRGKNKVAAQNCRKRKLENIVELEQDLGHLKDEREKLLREKGENDRNLHLLKRRLSTLYLEVFSMLRDEDGKPYSPSEYSLQQTRDGNVFLVPKSKKPDTKKN
B2: estrogen receptor-related receptor alpha (ERRα) (protein, UniProt O08580 1-422)
chain: MSSQVVGIEPLYIKAEPASPDSPKGSSETETEPPVTLASGPAPARCLPGHKEEEDGEGAGSGEQGSGKLVLSSLPKRLCLVCGDVASGYHYGVASCEACKAFFKRTIQGSIEYSCPASNECEITKRRRKACQACRFTKCLRVGMLKEGVRLDRVRGGRQKYKRRPEVDPLPFPGPFPAGPLAVAGGPRKTAPVNALVSHLLVVEPEKLYAMPDPASPDGHLPAVATLCDLFDREIVVTISWAKSIPGFSSLSLSDQMSVLQSVWMEVLVLGVAQRSLPLQDELAFAEDLVLDEEGARAAGLGDLGAALLQLVRRLQALRLEREEYVLLKALALANSDSVHIEDAEAVEQLREALHEALLEYEAGRAGPGGGAERRRAGRLLLTLPLLRQTAGKVLAHFYGVKLEGKVPMHKLFLEMLEAMMD

Biological target: T1, peroxisome proliferator-activated receptor gamma coactivator 1α (PGC-1α) (mouse (in TCMK-1 cells))
Experiment: co-IP; in TCMK-1 cells; the sentence does not name the method (immunoprecipitation is the only interaction method in the methods); bait not told

Row | Binder | binding
1 | B1 | binds
2 | B2 | binds
